Measurements: article PMC11850942
These are yes or no findings as the source states them, for the method shown. Binding seen in cells or lysates may run through a third protein. Some binding calls cover weakened binding; strength is not graded here.

Chains of the proteins cited; added tags and fusions are not shown. Residues count along the entry.
UniProt Q04206: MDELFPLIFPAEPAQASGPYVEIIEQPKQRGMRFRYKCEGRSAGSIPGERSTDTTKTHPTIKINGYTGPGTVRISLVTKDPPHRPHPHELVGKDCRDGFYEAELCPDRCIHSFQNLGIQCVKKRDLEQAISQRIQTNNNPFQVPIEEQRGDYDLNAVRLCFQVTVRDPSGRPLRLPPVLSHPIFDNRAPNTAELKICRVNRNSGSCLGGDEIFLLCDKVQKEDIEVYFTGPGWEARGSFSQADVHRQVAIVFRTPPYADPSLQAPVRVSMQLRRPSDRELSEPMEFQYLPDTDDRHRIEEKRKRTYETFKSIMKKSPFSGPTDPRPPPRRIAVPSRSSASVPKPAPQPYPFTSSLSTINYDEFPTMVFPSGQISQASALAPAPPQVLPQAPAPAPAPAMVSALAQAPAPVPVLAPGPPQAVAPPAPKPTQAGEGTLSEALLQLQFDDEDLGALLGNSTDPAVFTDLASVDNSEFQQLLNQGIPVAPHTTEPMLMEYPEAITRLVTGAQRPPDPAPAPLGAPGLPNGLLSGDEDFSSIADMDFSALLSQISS
UniProt P19532: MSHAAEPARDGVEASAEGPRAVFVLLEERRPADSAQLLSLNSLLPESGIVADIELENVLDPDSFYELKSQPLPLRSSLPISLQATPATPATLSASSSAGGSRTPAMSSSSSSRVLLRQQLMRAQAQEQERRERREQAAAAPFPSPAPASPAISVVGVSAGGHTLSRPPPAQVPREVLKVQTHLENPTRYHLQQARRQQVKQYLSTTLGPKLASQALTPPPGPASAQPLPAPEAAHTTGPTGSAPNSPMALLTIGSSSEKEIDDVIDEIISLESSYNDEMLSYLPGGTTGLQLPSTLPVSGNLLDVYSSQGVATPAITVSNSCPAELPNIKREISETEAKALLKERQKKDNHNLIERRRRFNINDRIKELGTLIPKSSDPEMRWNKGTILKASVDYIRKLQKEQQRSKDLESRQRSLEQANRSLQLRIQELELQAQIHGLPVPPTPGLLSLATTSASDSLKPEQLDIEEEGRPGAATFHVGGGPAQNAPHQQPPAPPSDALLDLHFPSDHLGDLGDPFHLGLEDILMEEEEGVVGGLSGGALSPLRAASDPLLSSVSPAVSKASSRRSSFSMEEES
UniProt P19838, residues 1-433: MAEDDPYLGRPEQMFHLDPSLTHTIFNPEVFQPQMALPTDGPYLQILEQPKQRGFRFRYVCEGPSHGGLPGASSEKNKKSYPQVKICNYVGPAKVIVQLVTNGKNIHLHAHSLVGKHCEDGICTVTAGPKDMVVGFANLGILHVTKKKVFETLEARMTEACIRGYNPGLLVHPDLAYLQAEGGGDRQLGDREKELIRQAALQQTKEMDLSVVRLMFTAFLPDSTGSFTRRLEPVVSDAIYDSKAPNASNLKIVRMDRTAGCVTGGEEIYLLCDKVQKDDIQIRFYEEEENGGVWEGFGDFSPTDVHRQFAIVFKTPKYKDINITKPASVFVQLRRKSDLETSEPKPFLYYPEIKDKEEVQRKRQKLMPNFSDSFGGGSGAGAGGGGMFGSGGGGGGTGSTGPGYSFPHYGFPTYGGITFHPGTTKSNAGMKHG

B1: Zinc finger protein GLI-similar 2 (GLIS2) (protein, UniProt Q9BZE0 1-524)
chain: MHSLDEPLDLKLSITKLRAAREKRERTLGVVRPRALHRELGLVDDSPTPGSPGSPPSGFLLNSKFPEKVEGRFSAAPLVDLSLSPPSGLDSPNGSSSLSPERQGNGDLPPVPSASDFQPLRYLDGVPSSFQFFLPLGSGGALHLPASSFLTPPKDKCLSPDLPLPKQLVCRWAKCNQLFELLQDLVDHVNDYHVKPEKDAGYCCHWEGCARHGRGFNARYKMLIHIRTHTNEKPHRCPTCSKSFSRLENLKIHNRSHTGEKPYVCPYEGCNKRYSNSSDRFKHTRTHYVDKPYYCKMPGCHKRYTDPSSLRKHIKAHGHFVSHEQQELLQLRPPPKPPLPAPDGGPYVSGAQIIIPNPAALFGGPGLPGLPLPLAPGPLDLSALACGNGGGSGGGGGMGPGLPGPVLPLNLAKNPLLPSPFGAGGLGLPVVSLLAGAAGGKAEGEKGRGSVPTRALGMEGHKTPLERTESSCSRPSPDGLPLLPGTVLDLSTGVNSAASSPEALAPGWVVIPPGSVLLKPAVVN
B2: zinc finger and BTB domain containing 5 (ZBTB5) (protein, UniProt O15062 1-677)
chain: MDFPGHFEQIFQQLNYQRLHGQLCDCVIVVGNRHFKAHRSVLAACSTHFRALFSVAEGDQTMNMIQLDSEVVTAEAFAALIDMMYTSTLMLGESNVMDVLLAASHLHLNSVVKACKHYLTTRTLPMSPPSERVQEQSARMQRSFMLQQLGLSIVSSALNSSQNGEEQPAPMSSSMRSNLDQRTPFPMRRLHKRKQSAEERARQRLRPSIDESAISDVTPENGPSGVHSREEFFSPDSLKIVDNPKADGMTDNQEDSAIMFDQSFGTQEDAQVPSQSDNSAGNMAQLSMASRATQVETSFDQEAAPEKSSFQCENPEVGLGEKEHMRVVVKSEPLSSPEPQDEVSDVTSQAEGSESVEVEGVVVSAEKIDLSPESSDRSFSDPQSSTDRVGDIHILEVTNNLEHKSTFSISNFLNKSRGNNFTANQNNDDNIPNTTSDCRLESEAPYLLSPEAGPAGGPSSAPGSHVENPFSEPADSHFVRPMQEVMGLPCVQTSGYQGGEQFGMDFSRSGLGLHSSFSRVMIGSPRGGASNFPYYRRIAPKMPVVTSVRSSQIPENSTSSQLMMNGATSSFENGHPSQPGPPQLTRASADVLSKCKKALSEHNVLVVEGARKYACKICCKTFLTLTDCKKHIRVHTGEKPYACLKCGKRFSQSSHLYKHSKTTCLRWQSSNLPSTLL

Columns and labels:
[1] = target: p65/RELA (endogenous) (human (endogenous in HeLa)) (UniProt Q04206); experiment: proximity ligation; Immuno-PLA on endogenous proteins in fixed, permeabilised HeLa cells, parental against Δp65; goat anti-p65 with rabbit antibody against the partner; PLA spots per cell
[2] = target: p65/RELA (endogenous) (human (endogenous in HeLa)) (UniProt Q04206); experiment: co-IP; 500 µg whole-cell extract (Triton lysis buffer), 1 µg anti-NF-κB p65 (sc-8008) or mouse IgG on TrueBlot anti-mouse Ig agarose beads, overnight at 4 °C, Western blot; endogenous proteins

Row | binding [1] | binding [2] | Molecule
1 | binds | binds | transcription factor E3 (TFE3) (from UniProt P19532 1-575)
2 | – | binds | p50 (NFKB1) (from UniProt P19838 1-433)
3 | binds | – | B1
4 | binds | – | B2
